Measured data: PubChem BioAssay AID1224828 (NIAID, 2016)

Assay: 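Regulators linking TLR4 signalling to p65 nuclear translocation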 (primary screen)
Cell system: mouse RAW264.7 G9 macrophage reporter cells (GFP-p65, Tnf promoter-mCherry)
Knock-down reagent: siRNA pool against mouse genes, 100 nM
Duration: 2 days siRNA transfection, then 40 min LPS before fixation
Conditions: LPS (Salmonella minnesota R595) at 10 ng/ml
Read-out: 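Microscopy ratio of nuclear to perinuclear-ring GFP-p65 signal, scaled to the plate median; gene score is the average of two replicate robust z-scores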
Scale: p65 translocation robust z-score: higher = more nuclear NF-kappaB p65 after LPS than the plate median; nuclear/cytoplasmic p65 ratio: higher = more nuclear NF-kappaB p65
Active means: 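Called active when z exceeds 3.3 or falls under -1.56 (median of Tlr4 controls), giving activity score of at least 50; no calls for control wells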
Meaning of the calls: active = hit (p65 shift raised or lowered); inactive = no clear change
Here is one part, drawn at random, of about 17,000 reagents. Of all reagents, 762 (4.5%) got an active call. 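Active calls include both raised and lowered p65 entry, mostly lowered; wells with fewer than 50 cells lack a z-score.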 Raw values vary from plate to plate and are shown uncorrected. A number with no mark means an inactive call.

How did the screen score Ifnk?
p65 translocation robust z-score: -0.25; nuclear/cytoplasmic p65 ratio, rep 1: 1.51; nuclear/cytoplasmic p65 ratio, rep 2: 1.27; low cell count flag: enough cells to score

With Cyp2r1, what does the deposit list?
p65 translocation robust z-score: 0.43; nuclear/cytoplasmic p65 ratio, rep 1: 1.58; nuclear/cytoplasmic p65 ratio, rep 2: 1.92; low cell count flag: enough cells to score

What is on record for Utrn?
p65 translocation robust z-score: -0.56; nuclear/cytoplasmic p65 ratio, rep 1: 1.44; nuclear/cytoplasmic p65 ratio, rep 2: 1.42; low cell count flag: enough cells to score

How did the screen score Or12d13?
p65 translocation robust z-score: 0.04; nuclear/cytoplasmic p65 ratio, rep 1: 1.41; nuclear/cytoplasmic p65 ratio, rep 2: 1.7; low cell count flag: enough cells to score

For Mapk8ip3, how do the results read?
p65 translocation robust z-score: -0.72; nuclear/cytoplasmic p65 ratio, rep 1: 1.9; nuclear/cytoplasmic p65 ratio, rep 2: 1.28; low cell count flag: enough cells to score

How did the screen score Hecw1?
p65 translocation robust z-score: -0.72; nuclear/cytoplasmic p65 ratio, rep 1: 1.49; nuclear/cytoplasmic p65 ratio, rep 2: 1.42; low cell count flag: enough cells to score

What is on record for Rgl1?
nuclear/cytoplasmic p65 ratio, rep 1: 1.32; nuclear/cytoplasmic p65 ratio, rep 2: 1.95; low cell count flag: fewer than 50 cells per well; well left out of scoring

What did the screen give for Dicer1?
nuclear/cytoplasmic p65 ratio, rep 1: 1.36; nuclear/cytoplasmic p65 ratio, rep 2: 1.57; low cell count flag: fewer than 50 cells per well; well left out of scoring

What is on record for Nherf2?
nuclear/cytoplasmic p65 ratio, rep 1: 0; nuclear/cytoplasmic p65 ratio, rep 2: 0; low cell count flag: fewer than 50 cells per well; well left out of scoring

What is on record for 5730455P16Rik?
p65 translocation robust z-score: -0.02; nuclear/cytoplasmic p65 ratio, rep 1: 1.57; nuclear/cytoplasmic p65 ratio, rep 2: 1.65; low cell count flag: enough cells to score

For Or6n2, what was measured?
p65 translocation robust z-score: 0.27; nuclear/cytoplasmic p65 ratio, rep 1: 1.48; nuclear/cytoplasmic p65 ratio, rep 2: 1.08; low cell count flag: enough cells to score

For Lrrc8c, what was measured?
nuclear/cytoplasmic p65 ratio, rep 1: 1.2; nuclear/cytoplasmic p65 ratio, rep 2: 1.2; low cell count flag: fewer than 50 cells per well; well left out of scoring

How did the screen score Akap10?
p65 translocation robust z-score: -0.32; nuclear/cytoplasmic p65 ratio, rep 1: 1.62; nuclear/cytoplasmic p65 ratio, rep 2: 1.52; low cell count flag: enough cells to score

With Egfr, what was measured?
p65 translocation robust z-score: 1.84; nuclear/cytoplasmic p65 ratio, rep 1: 1.98; nuclear/cytoplasmic p65 ratio, rep 2: 1.56; low cell count flag: enough cells to score
